Results are given in words; binding and its absence hold for the method and conditions named. Some entries that bind do so weakly or less than the wild type.
Biological target: T1, human IFN-γ receptor (IFN-γ R1) (human) (UniProt P15260)
T1 sequence (looked up): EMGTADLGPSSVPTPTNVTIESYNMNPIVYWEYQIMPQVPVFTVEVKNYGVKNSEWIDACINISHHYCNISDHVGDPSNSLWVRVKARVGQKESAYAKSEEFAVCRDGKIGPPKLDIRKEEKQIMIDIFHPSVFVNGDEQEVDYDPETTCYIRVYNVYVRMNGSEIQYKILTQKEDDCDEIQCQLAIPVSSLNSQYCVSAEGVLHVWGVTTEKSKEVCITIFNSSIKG
Assay: ELISA: biotinylated human IFN-γ on coated human IFN-γ R1, Extravidin-AP

Amino acid sequences for entries named in this document (tags omitted). Residues count along the entry.
UniProt P01579, residues 24-166: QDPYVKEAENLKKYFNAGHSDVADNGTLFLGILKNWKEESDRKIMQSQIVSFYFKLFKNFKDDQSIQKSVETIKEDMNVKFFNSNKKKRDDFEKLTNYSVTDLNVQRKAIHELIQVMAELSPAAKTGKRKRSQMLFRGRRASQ

binding: binds
Substance: human IFN-gamma (from UniProt P01579 24-166) (ligand)

Reference: patent US20060034833A1 (published 2006)
